Test results from PMC11092326.
Results are given in words; binding and its absence hold for the method and conditions named. In cells and extracts the contact can be indirect. Some entries that bind do so weakly or less than the wild type.

Sequences of proteins named here, by UniProt entry; tags and fusion partners are left off.
UniProt P35579: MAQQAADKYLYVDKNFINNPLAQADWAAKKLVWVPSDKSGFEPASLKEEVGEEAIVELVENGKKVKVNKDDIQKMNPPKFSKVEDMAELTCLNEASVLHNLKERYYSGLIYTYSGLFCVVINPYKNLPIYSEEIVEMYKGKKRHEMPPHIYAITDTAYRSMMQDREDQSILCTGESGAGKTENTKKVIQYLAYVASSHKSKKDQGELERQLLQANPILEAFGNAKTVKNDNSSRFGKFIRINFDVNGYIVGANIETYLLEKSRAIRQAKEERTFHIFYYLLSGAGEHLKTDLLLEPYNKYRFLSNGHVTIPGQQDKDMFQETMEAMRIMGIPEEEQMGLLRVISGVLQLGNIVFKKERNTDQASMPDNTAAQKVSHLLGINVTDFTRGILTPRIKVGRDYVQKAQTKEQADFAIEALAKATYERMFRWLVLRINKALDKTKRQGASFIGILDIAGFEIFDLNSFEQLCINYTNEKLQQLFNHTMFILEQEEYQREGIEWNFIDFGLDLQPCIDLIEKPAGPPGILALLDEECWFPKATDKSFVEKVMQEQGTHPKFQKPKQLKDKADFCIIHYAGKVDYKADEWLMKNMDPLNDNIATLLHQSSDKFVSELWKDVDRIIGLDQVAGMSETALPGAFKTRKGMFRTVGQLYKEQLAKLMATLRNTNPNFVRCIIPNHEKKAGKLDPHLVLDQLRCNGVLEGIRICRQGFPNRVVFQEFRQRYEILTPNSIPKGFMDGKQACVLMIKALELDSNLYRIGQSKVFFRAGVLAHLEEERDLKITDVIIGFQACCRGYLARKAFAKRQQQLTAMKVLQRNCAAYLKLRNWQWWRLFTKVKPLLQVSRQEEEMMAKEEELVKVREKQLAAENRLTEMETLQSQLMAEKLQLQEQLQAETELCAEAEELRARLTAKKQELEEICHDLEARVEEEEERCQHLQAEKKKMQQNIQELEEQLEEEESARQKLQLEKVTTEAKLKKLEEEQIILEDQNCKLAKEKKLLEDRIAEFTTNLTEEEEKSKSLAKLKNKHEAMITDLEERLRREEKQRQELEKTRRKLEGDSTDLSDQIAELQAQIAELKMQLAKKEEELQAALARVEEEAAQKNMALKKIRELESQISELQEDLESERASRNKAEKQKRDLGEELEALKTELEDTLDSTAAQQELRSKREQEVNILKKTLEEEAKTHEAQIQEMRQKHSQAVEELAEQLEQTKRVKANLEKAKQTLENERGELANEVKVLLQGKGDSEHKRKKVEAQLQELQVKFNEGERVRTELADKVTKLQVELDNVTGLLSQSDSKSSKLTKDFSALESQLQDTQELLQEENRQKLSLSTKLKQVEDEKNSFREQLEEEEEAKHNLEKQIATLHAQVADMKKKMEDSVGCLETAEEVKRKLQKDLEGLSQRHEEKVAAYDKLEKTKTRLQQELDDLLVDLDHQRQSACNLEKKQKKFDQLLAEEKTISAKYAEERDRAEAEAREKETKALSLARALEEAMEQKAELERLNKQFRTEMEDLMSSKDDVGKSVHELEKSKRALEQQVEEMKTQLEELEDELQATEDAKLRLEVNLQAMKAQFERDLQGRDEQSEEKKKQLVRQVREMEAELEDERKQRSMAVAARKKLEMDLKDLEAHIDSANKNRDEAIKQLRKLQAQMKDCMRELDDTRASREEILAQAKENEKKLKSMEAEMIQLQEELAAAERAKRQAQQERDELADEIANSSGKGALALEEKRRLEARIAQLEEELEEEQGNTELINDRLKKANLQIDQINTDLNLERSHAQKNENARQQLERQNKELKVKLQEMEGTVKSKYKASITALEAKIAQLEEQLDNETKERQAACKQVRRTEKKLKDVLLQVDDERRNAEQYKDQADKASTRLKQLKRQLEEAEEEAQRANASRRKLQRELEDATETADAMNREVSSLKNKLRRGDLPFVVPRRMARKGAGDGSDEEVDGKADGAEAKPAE
UniProt Q8N884: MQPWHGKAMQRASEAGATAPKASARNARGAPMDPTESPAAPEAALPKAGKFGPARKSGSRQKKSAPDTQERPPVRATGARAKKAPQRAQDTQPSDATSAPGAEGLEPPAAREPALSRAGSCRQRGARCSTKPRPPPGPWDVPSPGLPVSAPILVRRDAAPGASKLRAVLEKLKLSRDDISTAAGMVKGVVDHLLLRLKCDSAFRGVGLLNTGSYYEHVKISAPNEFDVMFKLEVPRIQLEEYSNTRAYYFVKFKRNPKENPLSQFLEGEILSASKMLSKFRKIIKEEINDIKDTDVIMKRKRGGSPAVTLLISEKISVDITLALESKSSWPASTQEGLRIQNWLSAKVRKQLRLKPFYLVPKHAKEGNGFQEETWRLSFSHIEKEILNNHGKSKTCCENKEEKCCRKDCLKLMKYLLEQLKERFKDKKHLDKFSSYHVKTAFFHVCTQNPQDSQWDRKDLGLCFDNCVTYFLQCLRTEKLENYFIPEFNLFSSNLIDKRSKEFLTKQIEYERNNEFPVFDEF
UniProt P09874: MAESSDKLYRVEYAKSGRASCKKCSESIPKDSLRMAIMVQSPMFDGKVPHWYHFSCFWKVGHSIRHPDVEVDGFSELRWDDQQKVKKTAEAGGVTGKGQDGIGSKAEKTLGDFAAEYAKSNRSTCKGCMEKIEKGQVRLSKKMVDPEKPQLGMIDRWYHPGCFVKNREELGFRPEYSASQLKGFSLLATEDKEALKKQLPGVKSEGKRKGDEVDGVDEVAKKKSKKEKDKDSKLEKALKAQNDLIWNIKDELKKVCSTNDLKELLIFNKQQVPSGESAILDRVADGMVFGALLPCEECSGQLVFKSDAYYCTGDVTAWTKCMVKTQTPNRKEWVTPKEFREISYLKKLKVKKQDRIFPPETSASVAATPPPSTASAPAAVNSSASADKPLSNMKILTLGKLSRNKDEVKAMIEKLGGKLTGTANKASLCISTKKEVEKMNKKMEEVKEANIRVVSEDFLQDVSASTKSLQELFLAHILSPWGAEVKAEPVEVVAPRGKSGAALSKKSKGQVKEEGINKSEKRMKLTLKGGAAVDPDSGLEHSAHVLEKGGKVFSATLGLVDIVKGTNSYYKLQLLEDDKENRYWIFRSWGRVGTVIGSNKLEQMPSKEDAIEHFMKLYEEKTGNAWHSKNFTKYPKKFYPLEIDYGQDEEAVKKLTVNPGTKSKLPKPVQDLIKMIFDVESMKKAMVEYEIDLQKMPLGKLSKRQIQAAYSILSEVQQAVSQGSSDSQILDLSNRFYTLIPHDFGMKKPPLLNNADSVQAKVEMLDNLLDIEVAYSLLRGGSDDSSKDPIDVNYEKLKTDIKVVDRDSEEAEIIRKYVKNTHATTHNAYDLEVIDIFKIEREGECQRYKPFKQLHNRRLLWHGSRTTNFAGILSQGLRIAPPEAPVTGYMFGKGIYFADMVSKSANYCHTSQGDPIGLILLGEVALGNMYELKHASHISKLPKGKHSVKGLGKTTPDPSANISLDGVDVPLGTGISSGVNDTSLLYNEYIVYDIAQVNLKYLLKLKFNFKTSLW

How the values were obtained:
[1] = target: non-muscle myosin heavy chain IIA fused with Flag tag (not stated (human or pig cDNA cloned)) (UniProt P35579); assay: co-IP
[2] = target: non-muscle myosin heavy chain IIA (endogenous, HEK-293T) (human (endogenous in HEK-293T)) (UniProt P35579); assay: co-IP

binding [1] | binding [2] | Substance
binds |  | human cyclic GMP-AMP synthase fused with HA tag (from UniProt Q8N884 1-522)
 | binds | human poly (ADP-ribose) polymerase 1 fused with HA tag (from UniProt P09874 1-1014)
